Measurements reported in PubChem BioAssay AID1224830 (NIAID, 2016).

Test: 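Regulators of TLR4 signalling towards TNF-alpha in macrophage-like cells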 (primary screen)
Cell system: human THP-1 monocytic leukaemia cells, TNF dual-luciferase reporter clone, PMA-differentiated to macrophage-like cells
Knock-down reagent: siRNA pool against human genes, 50 nM
Timing: LPS for 4 h, given about 3 days after siRNA transfection
Treatment: bacterial LPS (TLR4 ligand), 10 ng/ml
Read-out: 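TNF firefly reporter luminescence divided by renilla, normalised to the plate median, then turned into a robust z-score for each replicate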
Direction: TNF reporter robust z-score: higher = stronger TNF reporter response to LPS
Hit rule: 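Each well counts as active if its z-score is over 2.8 or under -1.5; controls are left without a call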
Here is a random part of about 18,000 reagents. About 2,900 of them (16%) were called active. 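Calls are made per well; low scores hint the gene aids the LPS response, high scores that it dampens it.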 Unmarked entries are inactive. Repeated entries: four replicate wells of each siRNA pool.

{"gene symbol":"MAGEB6 (GeneID 158809)","TNF reporter robust z-score":-0.89}
{"gene symbol":"MAGEB6 (GeneID 158809)","TNF reporter robust z-score":0.11}
{"gene symbol":"MAGEB6 (GeneID 158809)","TNF reporter robust z-score":-0.81}
{"gene symbol":"MAGEB6 (GeneID 158809)","TNF reporter robust z-score":-0.47}
{"gene symbol":"THOC1 (GeneID 9984)","TNF reporter robust z-score":"-1.74 (active)"}
{"gene symbol":"THOC1 (GeneID 9984)","TNF reporter robust z-score":-0.74}
{"gene symbol":"THOC1 (GeneID 9984)","TNF reporter robust z-score":-0.96}
{"gene symbol":"THOC1 (GeneID 9984)","TNF reporter robust z-score":-1.02}
{"gene symbol":"KRT27 (GeneID 342574)","TNF reporter robust z-score":1.04}
{"gene symbol":"KRT27 (GeneID 342574)","TNF reporter robust z-score":1.56}
{"gene symbol":"KRT27 (GeneID 342574)","TNF reporter robust z-score":2.59}
{"gene symbol":"KRT27 (GeneID 342574)","TNF reporter robust z-score":2.22}
{"gene symbol":"ARSA (GeneID 410)","TNF reporter robust z-score":0.85}
{"gene symbol":"ARSA (GeneID 410)","TNF reporter robust z-score":1.63}
{"gene symbol":"ARSA (GeneID 410)","TNF reporter robust z-score":1.61}
{"gene symbol":"ARSA (GeneID 410)","TNF reporter robust z-score":"2.83 (active)"}

5 neighbouring records from above, for reference:
{"gene symbol":"MAGEB6 (GeneID 158809)","TNF reporter robust z-score":0.11}
{"gene symbol":"MAGEB6 (GeneID 158809)","TNF reporter robust z-score":-0.81}
{"gene symbol":"MAGEB6 (GeneID 158809)","TNF reporter robust z-score":-0.47}
{"gene symbol":"THOC1 (GeneID 9984)","TNF reporter robust z-score":"-1.74 (active)"}
{"gene symbol":"THOC1 (GeneID 9984)","TNF reporter robust z-score":-0.74}

The results go on:
{"gene symbol":"FMO4 (GeneID 2329)","TNF reporter robust z-score":-0.97}
{"gene symbol":"FMO4 (GeneID 2329)","TNF reporter robust z-score":0.01}
{"gene symbol":"FMO4 (GeneID 2329)","TNF reporter robust z-score":0.58}
{"gene symbol":"FMO4 (GeneID 2329)","TNF reporter robust z-score":-0.29}
{"gene symbol":"FANCI (GeneID 55215)","TNF reporter robust z-score":-0.71}
{"gene symbol":"FANCI (GeneID 55215)","TNF reporter robust z-score":0.92}
{"gene symbol":"FANCI (GeneID 55215)","TNF reporter robust z-score":-0.09}
{"gene symbol":"FANCI (GeneID 55215)","TNF reporter robust z-score":0.22}
{"gene symbol":"PAX6 (GeneID 5080)","TNF reporter robust z-score":0.11}
{"gene symbol":"PAX6 (GeneID 5080)","TNF reporter robust z-score":0.13}
{"gene symbol":"PAX6 (GeneID 5080)","TNF reporter robust z-score":0.24}
{"gene symbol":"PAX6 (GeneID 5080)","TNF reporter robust z-score":0.66}
{"gene symbol":"TMEM145 (GeneID 284339)","TNF reporter robust z-score":0.36}
{"gene symbol":"TMEM145 (GeneID 284339)","TNF reporter robust z-score":0.8}
{"gene symbol":"TMEM145 (GeneID 284339)","TNF reporter robust z-score":0.54}
{"gene symbol":"TMEM145 (GeneID 284339)","TNF reporter robust z-score":1.07}
